# Article PMC3701075
# Results are given in words; binding and its absence hold for the method and conditions named. In cells and extracts the contact can be indirect. Some binding calls cover weakened binding; strength is not graded here.
# Assays:
# [1] = target: protein kinase CK2 (human (endogenous in HEK293)) (UniProt P68400+P67870); test: co-IP; reverse experiment: CK2 antibodies used for precipitation from HEK293 lysate, membrane probed with RP1 antibody detecting endogenous RP1; washing 0.01% and 0.3% Tween/PBS
# [2] = target: His-tagged RP1 wild type protein (UniProt Q15555); test: pull-down; His-tagged RP1 isolated with Ni-NTA-agarose beads from lysates of stably expressing HEK293 cells; washing with increasing PBS/Tween (0%-0.3%); blots probed with CK2 subunit antibodies; the paper calls it co-immunoprecipitation
binding [1],binding [2],Substance
binds,,endogenous RP1 (from UniProt Q15555 1-327)
,binds,protein kinase CK2 (from UniProt P68400 1-391; P67870 1-215) (complex)
